Results from PubChem BioAssay AID328 (DTP/NCI, 2004).
The list is a part of this screen's results and no random one: it is rich in T/C values a quarter to a half above the control, in often repeated tests (any T/C) and in doses without a T/C. Other doses and runs of a compound stand elsewhere. T/C is the treated group as % of the vehicle group. Some entries give survivors of the animals treated and no T/C: the source holds a T/C of zero for them, seemingly a mark for toxic or unscored doses. Some doses without a T/C left all or most animals alive at the check, yet need not have been tolerated: the source hardly ever lists a survival T/C far under the control, and the zero likely stands for such cases as well. Survivors were counted at the toxicity check, usually on the fifth day, unless a day is given; later deaths do not show. Schedule codes are those of the source, taken here to give the interval after Q, in days (D) or hours (H), and the number of doses after X. For survival time, the PubChem record calls one and a half times the control and up active, and a quarter to a half above the control has no call in these data; cut-offs in other NCI protocols can differ. Some T/C values are followed by the survivors on the day toxicity was checked, most often the fifth; where none is given, no animal had died by that day. Some entries hold several experiments; their values stand side by side, smallest first.

Test system: BDF1 mice, P388 leukemia ip, median survival T/C
Assay: NCI In Vivo Anticancer Drug Screen. Data for tumor model P388 Leukemia (intraperitoneal) in B6D2F1 (BDF1) mice
Conditions: T/C endpoint: median survival time, higher T/C = longer survival
How it was run: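 T/C = treated-group survival ÷ vehicle-control survival; tumour transplanted into mice before dosing.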

[1] = dose: 50.0 mg/kg/injection, schedule: Q01DX009 (ip), vehicle: saline
[2] = dose: 200.0 mg/kg/injection, schedule: Q01DX009 (ip), vehicle: saline
[3] = dose: 200.0 mg/kg/injection, schedule: Q01DX009 (ip), vehicle: saline with Tween-80

With `COc1cc(NCCCCCCNCC(C)C)c2nccc(C)c2c1` the survivor count [1] was 5 of 6, the survivor count (dose: 100.0 mg/kg/injection, schedule: Q01DX009 (ip), vehicle: saline) was 0 of 6 and the survivor count [2] was 0 of 6.
With `CSc1ccc(C(O)CNC(C)C)cc1C` (stereo not drawn) the survivor count [2] was 1 of 6.
With `O=S(=O)(O)c1ccc(O)cc1` the survivor count (dose: 400.0 mg/kg/injection, schedule: Q01DX009 (ip), vehicle: saline) was 6 of 6.
`C=CCCCCCCCCC(=O)NCCN1CCOCC1` was tested, and the survivor count [3] was 5 of 6.
With `Cc1ccc(-c2nc3sccn3c2/C=N/NC(N)=S)cc1` the survivor count (dose: 200.0 mg/kg/injection, schedule: Q01DX001 (ip), vehicle: Klucel (hydroxypropylcellulose) (HPC)) was 6 of 6.
With `CN1CCN(CCCN2c3ccccc3Sc3ccc(Cl)cc32)CC1` the T/C (dose: 25.0 mg/kg/injection, schedule: Q01DX009 (ip), vehicle: saline) was 136 % of control and the survivor count [1] was 4 of 6.
In the case of `C[C@@H]1CC[C@@]2(NC1)O[C@H]1C[C@H]3[C@@H]4CC=C5C[C@@H](O)CC[C@]5(C)[C@H]4CC[C@]3(C)[C@H]1[C@@H]2C`, the survivor count [3] is reported as 4 of 6.
`Cc1ccc(S(=O)(=O)N/N=C/c2ccncc2)cc1` was tested, and the T/C (dose: 100.0 mg/kg/injection, schedule: Q01DX009 (ip), vehicle: other) was 142 % of control [5 of 6 alive].
For `CN(C)N=Nc1ccccc1`, the survivor count (dose: 62.5 mg/kg/injection, schedule: Q01DX009 (ip), vehicle: Klucel (hydroxypropylcellulose) (HPC)) was 4 of 6, the T/C (dose: 82.0 mg/kg/injection, schedule: Q04DX003 (ip), vehicle: saline) was 131 % of control and the survivor count (dose: 125.0 mg/kg/injection, schedule: Q01DX009 (ip), vehicle: Klucel (hydroxypropylcellulose) (HPC)) was 0 of 6. The T/C (dose: 125.0 mg/kg/injection, schedule: Q04DX003 (ip), vehicle: Klucel (hydroxypropylcellulose) (HPC)) was 129 [5 of 6 alive] and 140 % of control, the survivor count (dose: 187.0 mg/kg/injection, schedule: Q04DX003 (ip), vehicle: Klucel (hydroxypropylcellulose) (HPC)) was 0 of 6 and the survivor count (dose: 187.0 mg/kg/injection, schedule: Q04DX003 (ip), vehicle: saline) was 2 of 6. For the same compound, the survivor count (dose: 250.0 mg/kg/injection, schedule: Q04DX003 (ip), vehicle: Klucel (hydroxypropylcellulose) (HPC)) was 0 of 6.
With `COc1cc(C=C2C(=O)C=CC2=O)ccc1O` the survivor count (dose: 25.0 mg/kg/injection, schedule: Q01DX009 (ip), vehicle: saline with Tween-80) was 0 of 6.
For `CCOC(=O)c1c[nH]c2cc(C(F)(F)F)ccc2c1=O`, the survivor count (dose: 50.0 mg/kg/injection, schedule: Q04DX003 (ip), vehicle: gum acacia) was 6 of 6, the survivor count (dose: 100.0 mg/kg/injection, schedule: Q04DX003 (ip), vehicle: gum acacia) was 6 of 6 and the survivor count (dose: 200.0 mg/kg/injection, schedule: Q04DX003 (ip), vehicle: gum acacia) was 6 of 6. The survivor count (dose: 400.0 mg/kg/injection, schedule: Q04DX003 (ip), vehicle: gum acacia) was 6 of 6.
For `N#CCCN1c2ccccc2Sc2ccccc21`, the survivor count (dose: 25.0 mg/kg/injection, schedule: Q04DX003 (ip), vehicle: Klucel (hydroxypropylcellulose) (HPC)) was 6 of 6, the survivor count (dose: 50.0 mg/kg/injection, schedule: Q04DX003 (ip), vehicle: Klucel (hydroxypropylcellulose) (HPC)) was 6 of 6 and the survivor count (dose: 100.0 mg/kg/injection, schedule: Q04DX003 (ip), vehicle: Klucel (hydroxypropylcellulose) (HPC)) was 6 of 6. For the same compound, the survivor count (dose: 200.0 mg/kg/injection, schedule: Q04DX003 (ip), vehicle: Klucel (hydroxypropylcellulose) (HPC)) was 6 of 6.
In the case of `CNc1ccc([N+](=O)[O-])cc1C(=O)OC`, the survivor count (dose: 50.0 mg/kg/injection, schedule: Q01DX009 (ip), vehicle: saline with Tween-80) is reported as 6 of 6.
In the case of `Nc1nc(=S)c2[nH]c(N=Nc3ccc(S(=O)(=O)O)cc3)nc2[nH]1`, the T/C (dose: 6.25 mg/kg/injection, schedule: Q04DX003 (ip), vehicle: saline) is reported as 125 % of control, the T/C (dose: 12.5 mg/kg/injection, schedule: Q04DX003 (ip), vehicle: saline) is reported as 131 % of control and the T/C (dose: 25.0 mg/kg/injection, schedule: Q04DX003 (ip), vehicle: saline) is reported as 141 % of control. The T/C (dose: 50.0 mg/kg/injection, schedule: Q04DX003 (ip), vehicle: saline) was 131 % of control and the survivor count (dose: 100.0 mg/kg/injection, schedule: Q04DX003 (ip), vehicle: saline) was 5 of 6.
